The target in the data set is Egr-1 (NIH3T3 nuclear extract) (Mus musculus) (UniProt P08046). The data set can be described thus: EMSA. The following applies: 20 mM HEPES pH 7.5, 70 mM KCl, 5 mM MgCl2, 100 uM ZnCl2, room temperature; retardation proportional to Egr-1 level; protein in an extract; protein details: endogenous or pCMV-Egr-1 expressed; label: 32P 5'-end. On the technique in general: A gel shift assay detects complexes by their altered migration in electrophoresis.

At least one result comes from cells or an extract, where the contact may be indirect.

As for “GATCTCGCGGGGGCGAGGGGGATC (double strand) [GCE oligonucleotide (Egr-1 binding site)]”, the binding result is reported as “binds”.

The values above are taken from US5837692.
